From article PMC5520495

By UniProt entry, the sequences of proteins in these tests, tags left out. Where a name states a change or a piece, a line headed by the entry shows the natural chain unless it says otherwise.
UniProt Q92567: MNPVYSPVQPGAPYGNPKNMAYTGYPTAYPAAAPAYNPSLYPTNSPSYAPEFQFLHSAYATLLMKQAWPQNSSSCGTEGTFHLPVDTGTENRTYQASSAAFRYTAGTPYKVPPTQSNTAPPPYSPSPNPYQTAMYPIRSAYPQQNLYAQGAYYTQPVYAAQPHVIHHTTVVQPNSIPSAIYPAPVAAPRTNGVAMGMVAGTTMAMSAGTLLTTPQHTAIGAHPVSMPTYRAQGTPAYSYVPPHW
UniProt P31749: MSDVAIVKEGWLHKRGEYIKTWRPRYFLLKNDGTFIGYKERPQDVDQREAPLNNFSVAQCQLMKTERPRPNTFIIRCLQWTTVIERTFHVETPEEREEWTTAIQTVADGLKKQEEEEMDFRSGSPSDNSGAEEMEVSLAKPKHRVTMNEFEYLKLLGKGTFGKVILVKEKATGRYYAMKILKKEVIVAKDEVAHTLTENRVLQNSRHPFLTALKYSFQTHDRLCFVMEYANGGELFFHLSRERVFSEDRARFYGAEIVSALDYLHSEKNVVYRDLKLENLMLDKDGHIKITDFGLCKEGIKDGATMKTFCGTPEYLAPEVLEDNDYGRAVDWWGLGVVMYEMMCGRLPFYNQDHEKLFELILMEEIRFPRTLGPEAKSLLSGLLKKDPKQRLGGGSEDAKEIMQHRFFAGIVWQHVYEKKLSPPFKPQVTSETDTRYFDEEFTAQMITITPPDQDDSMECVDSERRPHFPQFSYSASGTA

Key:
[1] = biological target: EGFP-TCRP1 (tongue cancer resistance-related protein 1) (human) (UniProt Q92567); test: FRET or BRET; live NIH/3T3 or 293T (HEK293) cells co-transfected with EGFP and DsRed fusions; 48 h after transfection, room temperature; 130 mM NaCl, 5 mM MgCl2, 2 mM CaCl2, 5 mM HEPES, 1 mM EGTA, pH 7.4; quenching of GFP monitored during DsRed photobleaching
[2] = biological target: EGFP-TCRP1/mut2 (deletion mutant of TCRP1) (human) (UniProt Q92567); test: co-IP; total protein extracts of NIH/3T3 cells (untransfected as told, or transfected with pEGFP-TCRP1/mut1 or mut2); IP with TCRP1 antibody or control IgG and blot for PDK1, and the reverse; co-IP buffer 10 mM HEPES pH 8.0, 300 mM NaCl, 0.1 mM EDTA, 20% glycerol, 0.2% NP-40; 4 °C overnight; Protein A/G gel, 6 washes
[3] = biological target: EGFP-TCRP1/mut1 (deletion mutant of TCRP1) (human) (UniProt Q92567); test: as above
[4] = biological target: EGFP-TCRP1/mut2 (deletion mutant of TCRP1) (human) (UniProt Q92567); test: FRET or BRET; live NIH/3T3 or 293T (HEK293) cells co-transfected with EGFP and DsRed fusions; 48 h after transfection, room temperature; 130 mM NaCl, 5 mM MgCl2, 2 mM CaCl2, 5 mM HEPES, 1 mM EGTA, pH 7.4; quenching of GFP monitored during DsRed photobleaching
[5] = biological target: EGFP-TCRP1/mut1 (deletion mutant of TCRP1) (human) (UniProt Q92567); test: as above

binding [1]: no binding
Molecule: DsRed-Akt1 (from UniProt P31749 1-480) (enzyme)

binding [2]: no binding | binding [3]: no binding
B1: PDK1 in total protein extracts of NIH/3T3 cells (enzyme, UniProt Q9Z2A0 1-559)
chain: MARTTSQLYDAVPIQSSVVLCSCPSPSMVRSQTEPGSSPGIPSGVSRQGSTMDGTTAEARPSTNPLQQHPAQLPPQPRKKRPEDFKFGKILGEGSFSTVVLARELATSREYAIKILEKRHIIKENKVPYVTRERDVMSRLDHPFFVKLYFTFQDDEKLYFGLSYAKNGELLKYIRKIGSFDETCTRFYTAEIVSALEYLHGKGIIHRDLKPENILLNEDMHIQITDFGTAKVLSPESKQARANSFVGTAQYVSPELLTEKSACKSSDLWALGCIIYQLVAGLPPFRAGNEYLIFQKIIKLEYHFPEKFFPKARDLVEKLLVLDATKRLGCEEMEGYGPLKAHPFFETITWENLHQQTPPKLTAYLPAMSEDDEDCYGNYDNLLSQFGFMQVSSSSSSHSLSTVETSLPQRSGSNIEQYIHDLDTNSFELDLQFSEDEKRLLLEKQAGGNPWHQFVENNLILKMGPVDKRKGLFARRRQLLLTEGPHLYYVDPVNKVLKGEIPWSQELRPEAKNFKTFFVHTPNRTYYLMDPSGNAHKWCRKIQEVWRQQYQSNPDAAVQ

binding [1]: binds | binding [4]: no binding | binding [5]: no binding
B2: DsRed-PDK1 (3-phosphoinositide-dependent protein kinase-1) (enzyme, UniProt O15530 1-556)
chain: MARTTSQLYDAVPIQSSVVLCSCPSPSMVRTQTESSTPPGIPGGSRQGPAMDGTAAEPRPGAGSLQHAQPPPQPRKKRPEDFKFGKILGEGSFSTVVLARELATSREYAIKILEKRHIIKENKVPYVTRERDVMSRLDHPFFVKLYFTFQDDEKLYFGLSYAKNGELLKYIRKIGSFDETCTRFYTAEIVSALEYLHGKGIIHRDLKPENILLNEDMHIQITDFGTAKVLSPESKQARANSFVGTAQYVSPELLTEKSACKSSDLWALGCIIYQLVAGLPPFRAGNEYLIFQKIIKLEYDFPEKFFPKARDLVEKLLVLDATKRLGCEEMEGYGPLKAHPFFESVTWENLHQQTPPKLTAYLPAMSEDDEDCYGNYDNLLSQFGCMQVSSSSSSHSLSASDTGLPQRSGSNIEQYIHDLDSNSFELDLQFSEDEKRLLLEKQAGGNPWHQFVENNLILKMGPVDKRKGLFARRRQLLLTEGPHLYYVDPVNKVLKGEIPWSQELRPEAKNFKTFFVHTPNRTYYLMDPSGNAHKWCRKIQEVWRQRYQSHPDAAVQ

No constants are given. Whether binding was seen depends on the method and setting. In cells and extracts the contact can be indirect. For part of these data: Binding calls can cover weak binding; strength is not graded here. One block for each molecule: values may come before it.
